Measurements published in the supplement of paper PMC4604168 (melanoma cell lines).
Some of the results follow. Repeats are few or missing, and single values can be far off.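 Cells were imaged in 1,536-well plates, and nuclei stained with an antibody against cleaved PARP were counted against all DNA-stained nuclei to give the apoptosis fraction. Screening doses were chosen to leave most cells alive, and resting and induced cleaved-PARP levels differ strongly between cell lines.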

Tests used:
Assay in all cases: cleaved PARP positive nuclei fraction relative to DMSO control; melanoma cells; higher = more apoptosis
Details in all cases: library dose: low library concentration; 72 h
MZ2-MEL = system: MZ2-MEL
MeWo = system: MeWo
RPMI7951 = system: RPMI7951
RVH-421 = system: RVH-421
SkMel28 = system: SkMel28
SkMel2 = system: SkMel2
SkMel30 = system: SkMel30
SkMel5 = system: SkMel5
UACC257 = system: UACC257
UACC62 = system: UACC62
WM115 = system: WM115
WM1716 = system: WM1716
WM1745 = system: WM1745
WM3526 = system: WM3526
WM3619 = system: WM3619
WM451Lu = system: WM451Lu

SMILES	cleaved PARP positive nuclei fraction (MZ2-MEL)	cleaved PARP positive nuclei fraction (MeWo)	cleaved PARP positive nuclei fraction (RPMI7951)	cleaved PARP positive nuclei fraction (RVH-421)	cleaved PARP positive nuclei fraction (SkMel28)	cleaved PARP positive nuclei fraction (SkMel2)	cleaved PARP positive nuclei fraction (SkMel30)	cleaved PARP positive nuclei fraction (SkMel5)	cleaved PARP positive nuclei fraction (UACC257)	cleaved PARP positive nuclei fraction (UACC62)	cleaved PARP positive nuclei fraction (WM115)	cleaved PARP positive nuclei fraction (WM1716)	cleaved PARP positive nuclei fraction (WM1745)	cleaved PARP positive nuclei fraction (WM3526)	cleaved PARP positive nuclei fraction (WM3619)	cleaved PARP positive nuclei fraction (WM451Lu)
C=CCNC1=C2C[C@@H](C)C[C@H](OC)[C@H](O)[C@@H](C)/C=C(\C)[C@H](OC(N)=O)[C@@H](OC)/C=C\C=C(/C)C(=O)NC(=CC1=O)C2=O [Tanespimycin] + Cc1cc(N2CCOCC2)cc2[nH]c(-c3c(NC[C@@H](O)c4cccc(Cl)c4)cc[nH]c3=O)nc12 [BMS536924] (first compound 0.002 µM, partner dose 0.2 µM)	127%	188%	38.1%	80.6%	85.7%	65.8%	66.7%	66.5%	71.7%	275%	81%	31.8%	218%	73.4%	114%	70%
Cn1cncc1[C@@](N)(c1ccc(Cl)cc1)c1ccc2c(c1)c(-c1cccc(Cl)c1)cc(=O)n2C [tipifarnib] + COc1cc2c(Oc3ccc4[nH]c(C)cc4c3F)ncnc2cc1OCCCN1CCCC1 [cediranib] (first compound 0.01 µM, partner dose 0.4 µM)	64.1%	200%	60.8%	120%	47.1%	96.8%	65.5%	71.8%	152%	72.5%	73.7%	137%	98.5%	59.8%	77.4%	144%
CC(=O)c1c(C)c2cnc(Nc3ccc(N4CCNCC4)cn3)nc2n(C2CCCC2)c1=O [palbociclib] + COc1cc(N2CCC(N3CCN(C)CC3)CC2)ccc1Nc1ncc(Cl)c(Nc2ccccc2S(=O)(=O)C(C)C)n1 [NVP-TAE684] (first compound 0.04 µM, partner dose 0.08 µM)	75.6%	43.8%	57.8%	130%	210%	124%	105%	103%	143%	120%	163%	182%	122%	143%	149%	112%
C#Cc1cccc(Nc2ncnc3cc(OCCOC)c(OCCOC)cc23)c1 [erlotinib] + O=C(Nc1cccc(Cl)c1)Nc1ncc(CCNc2ncnc3ccsc23)s1 [SNS314] (first compound 0.8 µM, partner dose 0.0008 µM)	28.5%	83.3%	103%	92.8%	137%	48.6%	63.5%	56.3%	121%	90.2%	175%	101%	112%	30.8%	116%	74.8%
COCC[n+]1c2c(n(Cc3cnccn3)c1C)C(=O)c1ccccc1C2=O + O=C(O)c1ccc(-c2c[nH]c3ncc(-c4ccccc4)cc23)cc1C1CCCC1 [GSK650394] (first compound 0.0004 µM, partner dose 0.16 µM)	444%	60%	59.6%	46.6%	186%	108%	39.2%	286%	105%	188%	40.8%	128%	96.8%	424%	82.5%	198%
OCc1c[nH]c2ccccc12 [Indole-3-carbinol] + Oc1nc(-c2ccc(C(F)(F)F)cc2)nc2c1CSCC2 [XAV939] (first compound 0.8 µM, partner dose 2 µM)	201%	67.5%	119%	112%	113%	51.3%	115%	133%	367%	88.1%	71.5%	255%	112%	67.5%	97.5%	366%
C#Cc1cccc(Nc2ncnc3cc(OCCOC)c(OCCOC)cc23)c1 [erlotinib] + CC(C)(C)c1cnc(CSc2cnc(NC(=O)C3CCNCC3)s2)o1 [SNS-032] (first compound 0.8 µM, partner dose 0.01 µM)	94.5%	98.4%	70.4%	23.7%	26.5%	81.4%	143%	76.4%	92.3%	78.1%	95.2%	99%	107%	102%	72.7%	49.9%
Cc1nc(Nc2ncc(C(=O)Nc3c(C)cccc3Cl)s2)cc(N2CCN(CCO)CC2)n1 [dasatanib] + OCCn1cc(-c2cnc3nnn(Cc4ccc5ncccc5c4)c3n2)cn1 [PF04217903] (first compound 0.004 µM, partner dose 1 µM)	161%	39%	110%	109%	112%	64.7%	59.8%	139%	150%	39.9%	104%	195%	153%	49%	124%	251%
Cc1ccc(NC(=O)c2cccc(N(C)C)c2)cc1NC(=O)c1ccc(O)cc1 + OCCn1cc(-c2cnc3nnn(Cc4ccc5ncccc5c4)c3n2)cn1 [PF04217903] (first compound 2 µM, partner dose 1 µM)	334%	108%	59.1%	87%	61.6%	26.3%	72.7%	95.7%	85%	117%	72.8%	119%	112%	183%	90%	338%
C=CCNC1=C2C[C@@H](C)C[C@H](OC)[C@H](O)[C@@H](C)/C=C(\C)[C@H](OC(N)=O)[C@@H](OC)/C=C\C=C(/C)C(=O)NC(=CC1=O)C2=O [Tanespimycin] + COc1ccc(COc2ccc(Cc3cnc(N)nc3N)cc2OC)cc1 [GW2580] (first compound 0.002 µM, partner dose 1 µM)	88.1%	64.3%	172%	216%	167%	90.6%	26%	77.6%	224%	278%	106%	600%	84.1%	126%	88.8%	135%
C=CCNC1=C2C[C@@H](C)C[C@H](OC)[C@H](O)[C@@H](C)/C=C(\C)[C@H](OC(N)=O)[C@@H](OC)/C=C\C=C(/C)C(=O)NC(=CC1=O)C2=O [Tanespimycin] + C[C@@H]1CCN(C(=O)CC#N)C[C@@H]1N(C)c1ncnc2[nH]ccc12 [CP690550] (first compound 0.002 µM, partner dose 1 µM)	92%	79.1%	62.6%	144%	102%	93%	80%	95.6%	77.5%	47.4%	70.1%	48.7%	115%	39.7%	101%	146%
OCc1c[nH]c2ccccc12 [Indole-3-carbinol] + COc1cc(N2CCC(N3CCN(C)CC3)CC2)ccc1Nc1ncc(Cl)c(Nc2ccccc2S(=O)(=O)C(C)C)n1 [NVP-TAE684] (first compound 0.8 µM, partner dose 0.08 µM)	130%	30.9%	333%	82%	212%	67.1%	180%	165%	135%	63.8%	200%	41.8%	108%	83%	159%	168%
Nc1cccc2c1CN(C1CCC(=O)NC1=O)C2=O (stereo not drawn) [lenalidomide] + CC1(C)NC(=O)N(c2ccc([N+](=O)[O-])c(C(F)(F)F)c2)C1=O [nilutamide] (first compound 1 µM, partner dose 1 µM)	53%	101%	41%	51.6%	288%	87.2%	123%	95.7%	74.1%	91.1%	108%	45.8%	102%	187%	107%	84.8%
O=C(CCCCCCC(=O)Nc1ccccc1)NO [vorinostat] + COc1cc(Nc2ncc(F)c(Nc3ccc4c(n3)NC(=O)C(C)(C)O4)n2)cc(OC)c1OC [Tamatinib] (first compound 0.08 µM, partner dose 0.4 µM)	90.3%	54.3%	110%	109%	22.5%	65.7%	33.2%	50.9%	142%	213%	99.7%	121%	86.1%	56.7%	119%	368%
COc1cc(Nc2ncc(F)c(Nc3ccc4c(n3)NC(=O)C(C)(C)O4)n2)cc(OC)c1OC [Tamatinib] + C=CCn1c(=O)c2cnc(Nc3ccc(N4CCN(C)CC4)cc3)nc2n1-c1cccc(C(C)(C)O)n1 [MK1775] (first compound 0.4 µM, partner dose 0.02 µM)	71.5%	183%	174%	111%	73.2%	148%	135%	109%	131%	340%	157%	73.7%	122%	67.6%	116%	93.6%
C[C@]1(c2nc3c(C(N)=O)cccc3[nH]2)CCCN1 [Veliparib] + Cc1ccc(NC(=O)c2cccc(N(C)C)c2)cc1NC(=O)c1ccc(O)cc1 [ZM336372] (first compound 1.4 µM, partner dose 2 µM)	126%	61.3%	299%	52.1%	123%	75.6%	70.5%	69.5%	135%	197%	246%	82%	94.3%	111%	126%	165%
COc1cc(Nc2ncc(F)c(Nc3ccc4c(n3)NC(=O)C(C)(C)O4)n2)cc(OC)c1OC [Tamatinib] + OCCn1cc(-c2cnc3nnn(Cc4ccc5ncccc5c4)c3n2)cn1 [PF04217903] (first compound 0.4 µM, partner dose 1 µM)	165%	56.5%	149%	189%	90.6%	167%	130%	110%	97.9%	147%	129%	216%	104%	31.9%	108%	206%
O=C(CCCCCCC(=O)Nc1ccccc1)NO [vorinostat] + CO[C@@H]1[C@H](N(C)C(=O)c2ccccc2)C[C@H]2O[C@]1(C)n1c3ccccc3c3c4c(c5c6ccccc6n2c5c31)C(=O)NC4 [Midostaurin] (first compound 0.08 µM, partner dose 0.08 µM)	116%	90.6%	192%	165%	112%	159%	62%	190%	72.2%	57.4%	198%	133%	110%	64.2%	111%	140%

Quoted at random: two records from the list
SMILES	cleaved PARP positive nuclei fraction (MZ2-MEL)	cleaved PARP positive nuclei fraction (MeWo)	cleaved PARP positive nuclei fraction (RPMI7951)	cleaved PARP positive nuclei fraction (RVH-421)	cleaved PARP positive nuclei fraction (SkMel28)	cleaved PARP positive nuclei fraction (SkMel2)	cleaved PARP positive nuclei fraction (SkMel30)	cleaved PARP positive nuclei fraction (SkMel5)	cleaved PARP positive nuclei fraction (UACC257)	cleaved PARP positive nuclei fraction (UACC62)	cleaved PARP positive nuclei fraction (WM115)	cleaved PARP positive nuclei fraction (WM1716)	cleaved PARP positive nuclei fraction (WM1745)	cleaved PARP positive nuclei fraction (WM3526)	cleaved PARP positive nuclei fraction (WM3619)	cleaved PARP positive nuclei fraction (WM451Lu)
O=C(CCCCCCC(=O)Nc1ccccc1)NO [vorinostat] + COc1cc(Nc2ncc(F)c(Nc3ccc4c(n3)NC(=O)C(C)(C)O4)n2)cc(OC)c1OC [Tamatinib] (first compound 0.08 µM, partner dose 0.4 µM)	90.3%	54.3%	110%	109%	22.5%	65.7%	33.2%	50.9%	142%	213%	99.7%	121%	86.1%	56.7%	119%	368%
C#Cc1cccc(Nc2ncnc3cc(OCCOC)c(OCCOC)cc23)c1 [erlotinib] + CC(C)(C)c1cnc(CSc2cnc(NC(=O)C3CCNCC3)s2)o1 [SNS-032] (first compound 0.8 µM, partner dose 0.01 µM)	94.5%	98.4%	70.4%	23.7%	26.5%	81.4%	143%	76.4%	92.3%	78.1%	95.2%	99%	107%	102%	72.7%	49.9%
